# Data from publication PMC11727237.
# Results are given in words; binding and its absence hold for the method and conditions named. Binding seen in cells or lysates may run through a third protein. Some results given as binding are weak or reduced against the parent protein; the word gives no strength. Sequences can lack the tags named with a protein.
# B1: Myc-TBK1, Q9UHD2 1-729 (protein)
# chain: MQSTSNHLWLLSDILGQGATANVFRGRHKKTGDLFAIKVFNNISFLRPVDVQMREFEVLKKLNHKNIVKLFAIEEETTTRHKVLIMEFCPCGSLYTVLEEPSNAYGLPESEFLIVLRDVVGGMNHLRENGIVHRDIKPGNIMRVIGEDGQSVYKLTDFGAARELEDDEQFVSLYGTEEYLHPDMYERAVLRKDHQKKYGATVDLWSIGVTFYHAATGSLPFRPFEGPRRNKEVMYKIITGKPSGAISGVQKAENGPIDWSGDMPVSCSLSRGLQVLLTPVLANILEADQEKCWGFDQFFAETSDILHRMVIHVFSLQQMTAHKIYIHSYNTATIFHELVYKQTKIISSNQELIYEGRRLVLEPGRLAQHFPKTTEENPIFVVSREPLNTIGLIYEKISLPKVHPRYDLDGDASMAKAITGVVCYACRIASTLLLYQELMRKGIRWLIELIKDDYNETVHKKTEVVITLDFCIRNIEKTVKVYEKLMKINLEAAELGEISDIHTKLLRLSSSQGTIETSLQDIDSRLSPGGSLADAWAHQEGTHPKDRNVEKLQVLLNCMTEIYYQFKKDKAERRLAYNEEQIHKFDKQKLYYHATKAMTHFTDECVKKYEAFLNKSEEWIRKMLHLRKQLLSLTNQCFDIEEEVSKYQEYTNELQETLPQKMFTASSGIKHTMTPIYPSSNTLVEMTLGMKKLKEEMEGVVKELAENNHILERFGSLTMDGGLRNVDCL
# Target: Flag-STING, Q86WV6
# Assay: co-IP; 293T cells transfected with Flag-STING and Myc-TBK1 for 24 h, then DMSO, 5 µM cGAMP, or 10 µM Ginkgetin with 5 µM cGAMP for 2 h; lysate incubated with anti-Myc beads or anti-Flag beads for 2 h at RT; washed three times (PBS salts, 0.5% Tween20); western blot with anti-Myc and anti-Flag
# Details: remark: other sources report otherwise
binder,measurement,value
B1,binding,binds
